Results are given in words; binding and its absence hold for the method and conditions named. In cells and extracts the contact can be indirect. A yes stands for co-enrichment or nearness to the bait. Other partners may have been found.
Molecular target: Flag-SNAP25 (human (cDNA library of HeLa cells)) (UniProt P60880)
Test: affinity purification with mass spectrometry

Amino acid sequences for entries named in this document (tags omitted).
UniProt P60880: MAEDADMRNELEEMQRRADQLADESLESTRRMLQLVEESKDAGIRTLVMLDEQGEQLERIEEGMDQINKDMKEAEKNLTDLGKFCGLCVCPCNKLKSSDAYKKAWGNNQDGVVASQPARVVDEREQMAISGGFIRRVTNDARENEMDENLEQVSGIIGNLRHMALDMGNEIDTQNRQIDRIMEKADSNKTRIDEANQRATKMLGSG

binding: binds
B1: Snapin (protein, UniProt O95295 1-136)
chain: MAGAGSAAVSGAGTPVAGPTGRDLFAEGLLEFLRPAVQQLDSHVHAVRESQVELREQIDNLATELCRINEDQKVALDLDPYVKKLLNARRRVVLVNNILQNAQERLRRLNHSVAKETARRRAMLDSGIYPPGSPGK

Reference: doi:10.1101/2022.08.05.502941
